Measurements as given in PubChem BioAssay (NCATS).
Inconclusive means that the source gave no clear call. Such entries were picked first, then a sample of the others. Potencies of inconclusive entries are doubtful fits and often do not repeat. Activity calls are given as the source filed them. The call rests on the fitted dose curve; in most records, active means well fitted curve in the direction sought with a large enough effect; inconclusive means small, poorly fitted or top-dose-only effect, or another doubt; inactive means no such curve, though single readings can be large; an effect the other way counts as inactive or inconclusive.

Assays:
[1] = Cell Viability - LYMP2-015 (AID 971); conditions: LYMP2-015 lymphoblastoid cell viability; series mostly up to 92.2 µM; further: nearly all actives have a fitted effect of over 55% in size
How it was run: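 LYMP2-015 human lymphoblastoid cells (2500/well) in complete medium, compound-treated 24 h at 37 C; viability read as cellular ATP by CellTiter-Glo luminescence after 30 min at room temperature. AC50 from Hill-equation fits of qHTS concentration-response data.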

[2] = Cell Viability - LYMP2-005 (AID 967)
How it was run: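 Acute cytotoxicity is scored as a concentration-dependent drop in intracellular ATP in human lymphoblastoid LYMP2-005 cells after 24 h compound treatment. ATP is quantified by luciferase luminescence, and AC50 is derived by Hill-equation modelling.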

[3] = Cell Viability - LYMP2-023 (AID 975); conditions: LYMP2-023 lymphoblastoid cell viability; activity change, negative = cytotoxicity: at 92.2 µM (top of the series); further: nearly all actives have a fitted effect of over 55% in size
How it was run: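 LYMP2-023 human lymphoblastoid cells, 2500/well, preincubated 5 hr at 37 C, then compound-treated 24 hr at 37 C in complete medium. CellTiter-Glo luminescence (ATP) after 30 min at room temperature; AC50 from Hill-equation fits; tetraoctylammonium bromide positive control.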

[4] = Cell Viability - LYMP1-003 - Assay at 24 hr (AID 963); conditions: LYMP1-003 lymphoblastoid cell viability
How it was run: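 Human lymphoblastoid LYMP1-003 cells, 2500/well, treated 24 h at 37 C in complete medium. Viability read as intracellular ATP by CellTiter-Glo luminescence after 30 min at room temperature; AC50 from Hill-equation fits of qHTS concentration-response.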

[5] = Cell Viability - LYMP1-003 - Assay at 40 hr (AID 964); further: nearly all actives have a fitted effect of over 60% in size
How it was run: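 LYMP1-003 human lymphoblastoid cells, 2500/well, preincubated 5 h at 37 C, then treated with compound for 40 h at 37 C. Intracellular ATP read by CellTiter-Glo luminescence after 30 min at room temperature; AC50 from Hill-equation fits.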

[6] = Cell Viability - LYMP2-004 (AID 966); further: nearly all actives have a fitted effect of over 65% in size
How it was run: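 Lymphoblastoid LYMP2-004 cells, 2500 per well, were preincubated for 5 hr and then treated with compound for 24 h at 37 C in complete medium. Viability was read as cellular ATP by CellTiter-Glo luminescence, and AC50 values were taken from Hill fits to concentration-response data.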

[7] = Cell Viability - LYMP2-009 (AID 968); further: nearly all actives have a fitted effect of over 55% in size
[8] = Cell Viability - LYMP2-011 (AID 969); further: nearly all actives have a fitted effect of over 60% in size
How it was run: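 2500 cells/well in complete medium, compound-treated 24 h at 37 C. Viability read as intracellular ATP by CellTiter-Glo luminescence after 30 min at room temperature. AC50 from Hill fits of qHTS concentration-response data.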

[9] = Cell Viability - LYMP2-013 (AID 970); further: nearly all actives have a fitted effect of over 55% in size
How it was run: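 Human lymphoblastoid LYMP2-013 cells, 2500/well, treated 24 h at 37 C in complete medium; viability as intracellular ATP by CellTiter-Glo luminescence after 30 min. AC50 from Hill fits of qHTS concentration-response.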

[10] = Cell Viability - LYMP2-017 (AID 972); further: nearly all actives have a fitted effect of over 55% in size
How it was run: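 LYMP2-017 human lymphoblastoid cells (2500/well) settled 5 hr at 37 C, then exposed to compound 24 hr at 37 C in complete medium. Viability taken as intracellular ATP by CellTiter-Glo luminescence after 30 min at RT; AC50 from Hill fits.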

[11] = Cell Viability - LYMP2-019 (AID 973); further: nearly all actives have a fitted effect of over 55% in size
How it was run: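 Human lymphoblastoid LYMP2-019 cells (2500/well) preincubated 5 h at 37 C, then treated 24 h at 37 C in complete medium. Viability by CellTiter-Glo ATP luminescence after 30 min at room temperature; AC50 from Hill fits.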

[12] = Cell Viability - LYMP2-021 (AID 974)
How it was run: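 Human lymphoblastoid LYMP2-021 cells, 2500/well in complete medium, treated 24 hours at 37 C. Intracellular ATP by CellTiter-Glo luminescence (30 min, RT); AC50 from Hill fits of concentration-response.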

[13] = Cell Viability - LYMP2-002 (AID 977); conditions: LYMP2-002 lymphoblastoid cell viability, qHTS; activity change, negative = cytotoxic: at 92.2 µM (top of the series);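 further: compound exposure lasted 24 h at 37 °C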
How it was run: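 Human lymphoblastoid LYMP2-002 cells, 2500 per well, exposed to compounds for 24 h at 37 C in complete medium; viability read as intracellular ATP by CellTiter-Glo luminescence, AC50 from Hill fits.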

[14] = Cell Viability - LYMP2-006 (AID 978); conditions: LYMP2-006 lymphoblastoid cell viability, qHTS; further: nearly all actives have a fitted effect of over 60% in size
How it was run: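 Cells are seeded at 2500 per well and rested 5 hr at 37 C. Compounds are added across a concentration series for 24 hr at 37 C, after which ATP is quantified by luciferase luminescence.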

[15] = Cell Viability - LYMP2-007 (AID 979); conditions: LYMP2-007 lymphoblastoid cell viability;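 further: cells exposed to compound for 24 h before reading; nearly all actives have a fitted effect of over 60% in size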
How it was run: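 Human lymphoblastoid LYMP2-007 cells (2500/well) preincubated 5 h at 37 C, then treated 24 h at 37 C in complete medium. Viability by CellTiter-Glo ATP luminescence after 30 min at room temperature; AC50 from Hill fits.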

[16] = Cell Viability - LYMP2-008 (AID 980); further: nearly all actives have a fitted effect of over 60% in size
How it was run: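 LYMP2-008 lymphoblastoid cells (2500/well) plated 5 h, then treated 24 h at 37 C in complete medium. Viability read as intracellular ATP by CellTiter-Glo luminescence after 30 min at room temperature; AC50 from Hill fits.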

[17] = Cell Viability - LYMP2-010 (AID 981); further: nearly all actives have a fitted effect of over 55% in size
How it was run: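 Human lymphoblastoid LYMP2-010 cells (2500/well) treated 24 h at 37 C in complete medium; viability read as intracellular ATP by CellTiter-Glo luminescence. AC50 from Hill fits of concentration-response data; tetraoctylammonium bromide positive control.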

[18] = Cell Viability - LYMP2-003 (AID 965);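 further: cells exposed to compounds for 24 h before reading; nearly all actives have a fitted effect of over 50% in size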
How it was run: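 Seed 2500 lymphoblastoid cells/well; incubate 5 hr, 37 C; add compounds; incubate 24 hr, 37 C; add CellTiter-Glo, 30 min RT; read luminescence. AC50 from Hill fit.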

[19] = Cell Viability - LYMP2-025 (AID 976); conditions: LYMP2-025 lymphoblastoid cell viability; activity change, negative = cytotoxicity: at 92.2 µM (top of the series)
How it was run: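 Human lymphoblastoid LYMP2-025 cells, 2500/well, exposed 24 h at 37 C in complete medium in 1536-well qHTS. Viability as cellular ATP by CellTiter-Glo luminescence; AC50 from Hill fits of concentration-response data.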

[20] = Cell Viability - LYMP2-012 (AID 982); conditions: LYMP2-012 lymphoblastoid cell viability qHTS

Measured: Potency
Potency means the concentration at half of the fitted maximal effect.

COc1ccc(O)cc1
inactive: [1]

NC(=O)c1ccccc1
inconclusive: [2] 12.6 µM [cytotoxic, full curve, poor fit]

CCCOC(=O)c1ccc(O)cc1
inconclusive: [3] 79.4 µM [cytotoxic, single point]

O=C1CN(/N=C/c2ccc([N+](=O)[O-])o2)C(=O)N1
inconclusive: [4] 50.1 µM [cytotoxic, partial curve] | [5] 39.8 µM [cytotoxic, partial curve] | [6] 50.1 µM [cytotoxic, partial curve, poor fit] | [7] 50.1 µM [cytotoxic, partial curve, poor fit] | [8] 79.4 µM [cytotoxic, partial curve, poor fit] | [9] 63.1 µM [cytotoxic, single point] | [1] 50.1 µM [cytotoxic, partial curve, poor fit] | [10] 39.8 µM [cytotoxic, full curve] | [11] 79.4 µM [cytotoxic, single point] | [12] 79.4 µM [cytotoxic, single point] | [3] 50.1 µM [cytotoxic, partial curve, poor fit] | [13] 79.4 µM [cytotoxic, single point] | [14] 50.1 µM [cytotoxic, partial curve, poor fit] | [15] 50.1 µM [cytotoxic, partial curve] | [16] 39.8 µM [cytotoxic, partial curve] | [17] 50.1 µM [cytotoxic, partial curve, poor fit]

Oc1ccc(O)cc1
active: [6] 39.8 µM | [2] 39.8 µM | [17] 39.8 µM
inconclusive: [9] 39.8 µM [cytotoxic, partial curve] | [11] 50.1 µM [cytotoxic, partial curve, poor fit] | [13] 50.1 µM [cytotoxic, partial curve] | [14] 25.1 µM [cytotoxic, full curve] | [15] 50.1 µM [cytotoxic, partial curve, poor fit]

O=c1cc(-c2ccccc2)oc2ccccc12
inactive: [8]

NC(=O)N/N=C/c1ccc([N+](=O)[O-])o1
inactive: [2]
inconclusive: [4] 39.8 µM [cytotoxic, partial curve] | [5] 50.1 µM [cytotoxic, partial curve, poor fit] | [18] 50.1 µM [cytotoxic, partial curve] | [7] 79.4 µM [cytotoxic, partial curve, poor fit] | [8] 79.4 µM [cytotoxic, single point] | [1] 50.1 µM [cytotoxic, partial curve, poor fit] | [10] 50.1 µM [cytotoxic, partial curve] | [11] 79.4 µM [cytotoxic, single point] | [3] 50.1 µM [cytotoxic, partial curve, poor fit] | [19] 50.1 µM [cytotoxic, partial curve, poor fit] | [13] 79.4 µM [cytotoxic, partial curve, poor fit] | [14] 50.1 µM [cytotoxic, single point] | [16] 50.1 µM [cytotoxic, partial curve, poor fit] | [17] 50.1 µM [cytotoxic, partial curve] | [20] 79.4 µM [cytotoxic, partial curve, poor fit]

O=c1c(-c2ccc(O)cc2)coc2cc(O)cc(O)c12
inactive: [18] | [10]
inconclusive: [17] 63.1 µM [cytotoxic, partial curve, poor fit]

C#C[C@]1(O)CC[C@H]2[C@@H]3CCc4cc(O)ccc4[C@H]3CC[C@@]21C
inactive: [7]
inconclusive: [5] 50.1 µM [cytotoxic, partial curve, poor fit] | [2] 2.51 µM [cytotoxic, full curve, poor fit]

Nc1nc2ccc([N+](=O)[O-])cc2s1
inconclusive: [2] 25.1 µM [cytotoxic, full curve, poor fit] | [17] 50.1 µM [cytotoxic, partial curve, poor fit]

O=C(O)c1cc(O)c2c(c1)C(=O)c1cccc(O)c1C2=O
inconclusive: [7] 79.4 µM [cytotoxic, partial curve] | [8] 39.8 µM [cytotoxic, partial curve] | [9] 79.4 µM [cytotoxic, single point] | [10] 50.1 µM [cytotoxic, partial curve, poor fit] | [11] 50.1 µM [cytotoxic, partial curve, poor fit] | [12] 79.4 µM [cytotoxic, single point] | [3] 63.1 µM [cytotoxic, single point] | [19] 50.1 µM [cytotoxic, partial curve, poor fit] | [13] 79.4 µM [cytotoxic, partial curve, poor fit] | [14] 50.1 µM [cytotoxic, partial curve, poor fit] | [15] 79.4 µM [cytotoxic, single point] | [16] 50.1 µM [cytotoxic, partial curve]
